From the supplement of paper PMC12067093, “Discovery and optimisation of a covalent ligand for TRIM25 and its application to targeted protein ubiquitination” (Chemical Science, 2025)
This is one part of the list.

The chains behind the UniProt entries cited, without tags or fusion partners. Where a name states a change or a piece, a line headed by the entry shows the natural chain unless it says otherwise.
UniProt Q9UJV9: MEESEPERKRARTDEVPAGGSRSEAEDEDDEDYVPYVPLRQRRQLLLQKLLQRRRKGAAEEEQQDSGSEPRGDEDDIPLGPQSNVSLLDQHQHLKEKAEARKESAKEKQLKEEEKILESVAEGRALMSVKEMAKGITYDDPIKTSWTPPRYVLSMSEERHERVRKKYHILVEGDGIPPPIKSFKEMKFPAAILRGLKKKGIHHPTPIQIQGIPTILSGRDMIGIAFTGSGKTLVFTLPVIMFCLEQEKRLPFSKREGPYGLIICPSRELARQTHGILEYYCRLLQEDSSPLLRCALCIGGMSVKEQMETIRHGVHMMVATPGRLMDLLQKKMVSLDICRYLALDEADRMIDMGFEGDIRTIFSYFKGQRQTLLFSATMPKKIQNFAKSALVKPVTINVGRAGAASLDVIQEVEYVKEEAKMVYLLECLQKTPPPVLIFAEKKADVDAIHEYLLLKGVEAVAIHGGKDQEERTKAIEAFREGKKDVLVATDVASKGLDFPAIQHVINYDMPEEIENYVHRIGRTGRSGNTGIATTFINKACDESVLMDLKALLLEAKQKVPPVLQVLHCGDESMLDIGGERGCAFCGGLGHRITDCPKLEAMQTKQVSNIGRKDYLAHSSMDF
UniProt Q92499: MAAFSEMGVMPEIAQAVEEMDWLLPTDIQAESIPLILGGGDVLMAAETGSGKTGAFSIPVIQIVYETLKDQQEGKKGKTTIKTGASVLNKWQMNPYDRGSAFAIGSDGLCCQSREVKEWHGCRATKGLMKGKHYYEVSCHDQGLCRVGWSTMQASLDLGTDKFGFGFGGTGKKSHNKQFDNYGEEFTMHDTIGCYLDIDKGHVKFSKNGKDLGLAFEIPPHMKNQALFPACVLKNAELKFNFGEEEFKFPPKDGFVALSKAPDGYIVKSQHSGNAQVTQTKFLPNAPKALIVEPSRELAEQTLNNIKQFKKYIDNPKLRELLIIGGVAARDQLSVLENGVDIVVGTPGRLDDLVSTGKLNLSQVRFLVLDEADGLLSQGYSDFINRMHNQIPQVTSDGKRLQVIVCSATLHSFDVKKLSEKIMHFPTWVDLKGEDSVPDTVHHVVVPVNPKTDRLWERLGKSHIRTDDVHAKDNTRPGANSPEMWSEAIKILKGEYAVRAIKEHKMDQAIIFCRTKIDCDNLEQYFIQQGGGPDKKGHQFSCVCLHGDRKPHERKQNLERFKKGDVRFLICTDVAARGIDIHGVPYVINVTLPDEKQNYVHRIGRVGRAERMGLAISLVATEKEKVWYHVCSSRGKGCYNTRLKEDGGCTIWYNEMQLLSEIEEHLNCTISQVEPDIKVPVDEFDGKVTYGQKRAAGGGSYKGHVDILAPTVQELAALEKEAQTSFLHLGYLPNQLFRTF
UniProt Q5T1V6: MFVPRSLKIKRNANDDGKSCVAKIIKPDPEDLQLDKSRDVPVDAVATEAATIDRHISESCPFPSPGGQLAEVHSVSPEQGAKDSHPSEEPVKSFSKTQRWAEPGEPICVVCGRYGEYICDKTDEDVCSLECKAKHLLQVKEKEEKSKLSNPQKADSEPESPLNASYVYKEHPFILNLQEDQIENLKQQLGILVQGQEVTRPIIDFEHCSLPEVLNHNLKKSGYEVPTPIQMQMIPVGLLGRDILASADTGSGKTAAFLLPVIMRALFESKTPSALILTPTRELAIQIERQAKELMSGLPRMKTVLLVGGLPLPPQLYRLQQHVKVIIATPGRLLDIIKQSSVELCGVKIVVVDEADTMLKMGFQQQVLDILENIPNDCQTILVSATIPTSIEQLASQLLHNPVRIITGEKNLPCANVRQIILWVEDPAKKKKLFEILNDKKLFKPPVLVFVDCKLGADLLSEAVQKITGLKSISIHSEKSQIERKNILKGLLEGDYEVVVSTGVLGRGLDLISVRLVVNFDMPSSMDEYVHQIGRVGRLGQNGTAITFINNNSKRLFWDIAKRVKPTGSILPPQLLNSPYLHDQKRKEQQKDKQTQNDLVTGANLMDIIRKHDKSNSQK
UniProt Q9NVP1: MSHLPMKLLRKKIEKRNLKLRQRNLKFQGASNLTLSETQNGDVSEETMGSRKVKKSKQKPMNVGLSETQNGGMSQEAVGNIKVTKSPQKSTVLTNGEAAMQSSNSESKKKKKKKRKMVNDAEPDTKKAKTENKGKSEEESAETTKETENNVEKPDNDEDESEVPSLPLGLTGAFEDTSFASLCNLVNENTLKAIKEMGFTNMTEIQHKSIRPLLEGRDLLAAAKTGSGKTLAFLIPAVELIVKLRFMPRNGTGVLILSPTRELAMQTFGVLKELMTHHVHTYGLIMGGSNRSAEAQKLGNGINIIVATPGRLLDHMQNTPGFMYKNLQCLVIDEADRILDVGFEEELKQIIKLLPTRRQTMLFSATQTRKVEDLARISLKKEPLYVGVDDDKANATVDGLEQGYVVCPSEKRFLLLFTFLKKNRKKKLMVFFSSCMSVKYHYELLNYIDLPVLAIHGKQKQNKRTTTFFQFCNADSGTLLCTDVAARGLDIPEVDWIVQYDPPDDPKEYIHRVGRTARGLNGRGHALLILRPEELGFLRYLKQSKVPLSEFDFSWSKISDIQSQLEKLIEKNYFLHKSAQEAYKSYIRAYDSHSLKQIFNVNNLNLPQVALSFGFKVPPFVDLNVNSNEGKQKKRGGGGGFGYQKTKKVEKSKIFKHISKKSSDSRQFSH
UniProt O00273: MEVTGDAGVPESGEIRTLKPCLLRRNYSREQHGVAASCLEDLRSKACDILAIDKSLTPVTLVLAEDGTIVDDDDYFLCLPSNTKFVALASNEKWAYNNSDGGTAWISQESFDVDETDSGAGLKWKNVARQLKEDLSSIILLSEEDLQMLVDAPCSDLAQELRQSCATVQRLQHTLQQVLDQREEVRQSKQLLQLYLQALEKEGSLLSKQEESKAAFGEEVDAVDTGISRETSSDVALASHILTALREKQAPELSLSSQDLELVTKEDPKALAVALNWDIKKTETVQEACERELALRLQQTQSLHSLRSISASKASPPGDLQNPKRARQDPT
UniProt P35659: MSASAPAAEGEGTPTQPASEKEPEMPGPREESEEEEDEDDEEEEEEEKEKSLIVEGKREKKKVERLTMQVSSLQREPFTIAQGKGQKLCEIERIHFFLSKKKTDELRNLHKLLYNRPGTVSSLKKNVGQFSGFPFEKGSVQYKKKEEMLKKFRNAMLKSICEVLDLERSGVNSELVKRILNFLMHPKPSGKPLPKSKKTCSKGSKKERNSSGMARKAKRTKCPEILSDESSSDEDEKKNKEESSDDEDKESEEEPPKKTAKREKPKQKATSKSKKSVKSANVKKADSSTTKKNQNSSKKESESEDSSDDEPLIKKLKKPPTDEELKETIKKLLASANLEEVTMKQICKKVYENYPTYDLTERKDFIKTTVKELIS
UniProt P49619, whole entry: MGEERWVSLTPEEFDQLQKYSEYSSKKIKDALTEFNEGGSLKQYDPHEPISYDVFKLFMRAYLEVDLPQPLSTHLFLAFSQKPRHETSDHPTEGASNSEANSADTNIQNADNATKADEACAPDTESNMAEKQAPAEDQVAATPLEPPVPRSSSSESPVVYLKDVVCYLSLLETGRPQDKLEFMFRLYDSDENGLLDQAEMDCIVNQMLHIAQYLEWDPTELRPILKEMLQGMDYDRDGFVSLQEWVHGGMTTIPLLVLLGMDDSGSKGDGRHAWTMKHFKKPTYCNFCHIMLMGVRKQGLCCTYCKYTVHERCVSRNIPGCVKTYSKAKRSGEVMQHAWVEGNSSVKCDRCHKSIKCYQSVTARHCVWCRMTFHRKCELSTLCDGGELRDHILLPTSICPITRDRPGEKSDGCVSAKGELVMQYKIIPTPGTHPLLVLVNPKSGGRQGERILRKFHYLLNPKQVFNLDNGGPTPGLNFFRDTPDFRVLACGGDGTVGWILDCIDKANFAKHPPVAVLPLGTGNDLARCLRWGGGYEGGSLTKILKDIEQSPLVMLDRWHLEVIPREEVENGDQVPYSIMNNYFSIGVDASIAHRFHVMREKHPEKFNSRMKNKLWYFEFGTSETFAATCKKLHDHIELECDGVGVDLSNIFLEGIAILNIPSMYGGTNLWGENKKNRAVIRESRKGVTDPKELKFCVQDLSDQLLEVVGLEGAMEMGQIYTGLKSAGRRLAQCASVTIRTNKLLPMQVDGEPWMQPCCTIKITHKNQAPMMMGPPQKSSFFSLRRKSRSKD
UniProt Q8TDD1, whole entry, looked up: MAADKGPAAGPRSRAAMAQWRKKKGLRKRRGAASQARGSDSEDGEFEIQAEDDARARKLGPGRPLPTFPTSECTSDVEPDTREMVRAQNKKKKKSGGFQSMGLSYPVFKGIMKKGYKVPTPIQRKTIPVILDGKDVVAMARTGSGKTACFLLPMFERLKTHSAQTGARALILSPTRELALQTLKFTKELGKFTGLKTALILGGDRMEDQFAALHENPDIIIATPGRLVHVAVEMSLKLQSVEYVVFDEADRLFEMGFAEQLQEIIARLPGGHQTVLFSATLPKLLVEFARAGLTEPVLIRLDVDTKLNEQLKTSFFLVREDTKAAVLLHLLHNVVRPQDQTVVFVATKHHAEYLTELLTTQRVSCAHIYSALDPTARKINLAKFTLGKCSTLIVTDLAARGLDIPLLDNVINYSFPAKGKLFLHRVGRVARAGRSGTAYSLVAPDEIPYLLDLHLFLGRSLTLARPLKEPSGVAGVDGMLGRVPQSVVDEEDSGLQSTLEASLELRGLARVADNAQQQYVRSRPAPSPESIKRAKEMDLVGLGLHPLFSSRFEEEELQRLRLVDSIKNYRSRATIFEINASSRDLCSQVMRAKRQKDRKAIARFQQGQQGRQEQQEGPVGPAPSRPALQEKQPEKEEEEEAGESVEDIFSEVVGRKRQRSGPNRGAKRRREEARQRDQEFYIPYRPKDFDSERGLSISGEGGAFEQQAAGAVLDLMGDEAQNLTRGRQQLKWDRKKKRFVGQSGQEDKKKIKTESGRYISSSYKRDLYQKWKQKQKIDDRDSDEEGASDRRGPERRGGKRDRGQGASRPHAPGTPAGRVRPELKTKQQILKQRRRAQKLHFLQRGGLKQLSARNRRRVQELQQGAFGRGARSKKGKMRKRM
UniProt Q7Z3D6: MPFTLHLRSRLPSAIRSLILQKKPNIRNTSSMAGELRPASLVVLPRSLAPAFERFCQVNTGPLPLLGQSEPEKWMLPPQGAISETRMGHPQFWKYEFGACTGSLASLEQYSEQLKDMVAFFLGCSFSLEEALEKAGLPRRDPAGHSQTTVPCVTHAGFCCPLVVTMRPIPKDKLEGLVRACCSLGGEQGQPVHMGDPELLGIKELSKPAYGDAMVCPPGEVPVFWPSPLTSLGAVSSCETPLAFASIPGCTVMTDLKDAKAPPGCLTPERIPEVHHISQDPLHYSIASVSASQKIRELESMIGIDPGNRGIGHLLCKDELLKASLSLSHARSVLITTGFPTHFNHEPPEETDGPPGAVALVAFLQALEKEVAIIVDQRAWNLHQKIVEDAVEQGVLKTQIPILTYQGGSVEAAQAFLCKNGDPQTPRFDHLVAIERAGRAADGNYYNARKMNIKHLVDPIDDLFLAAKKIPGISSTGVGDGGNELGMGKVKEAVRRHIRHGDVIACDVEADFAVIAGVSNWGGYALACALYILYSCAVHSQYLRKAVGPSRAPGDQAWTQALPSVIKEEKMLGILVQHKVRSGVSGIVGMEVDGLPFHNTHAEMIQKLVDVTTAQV
UniProt Q13574: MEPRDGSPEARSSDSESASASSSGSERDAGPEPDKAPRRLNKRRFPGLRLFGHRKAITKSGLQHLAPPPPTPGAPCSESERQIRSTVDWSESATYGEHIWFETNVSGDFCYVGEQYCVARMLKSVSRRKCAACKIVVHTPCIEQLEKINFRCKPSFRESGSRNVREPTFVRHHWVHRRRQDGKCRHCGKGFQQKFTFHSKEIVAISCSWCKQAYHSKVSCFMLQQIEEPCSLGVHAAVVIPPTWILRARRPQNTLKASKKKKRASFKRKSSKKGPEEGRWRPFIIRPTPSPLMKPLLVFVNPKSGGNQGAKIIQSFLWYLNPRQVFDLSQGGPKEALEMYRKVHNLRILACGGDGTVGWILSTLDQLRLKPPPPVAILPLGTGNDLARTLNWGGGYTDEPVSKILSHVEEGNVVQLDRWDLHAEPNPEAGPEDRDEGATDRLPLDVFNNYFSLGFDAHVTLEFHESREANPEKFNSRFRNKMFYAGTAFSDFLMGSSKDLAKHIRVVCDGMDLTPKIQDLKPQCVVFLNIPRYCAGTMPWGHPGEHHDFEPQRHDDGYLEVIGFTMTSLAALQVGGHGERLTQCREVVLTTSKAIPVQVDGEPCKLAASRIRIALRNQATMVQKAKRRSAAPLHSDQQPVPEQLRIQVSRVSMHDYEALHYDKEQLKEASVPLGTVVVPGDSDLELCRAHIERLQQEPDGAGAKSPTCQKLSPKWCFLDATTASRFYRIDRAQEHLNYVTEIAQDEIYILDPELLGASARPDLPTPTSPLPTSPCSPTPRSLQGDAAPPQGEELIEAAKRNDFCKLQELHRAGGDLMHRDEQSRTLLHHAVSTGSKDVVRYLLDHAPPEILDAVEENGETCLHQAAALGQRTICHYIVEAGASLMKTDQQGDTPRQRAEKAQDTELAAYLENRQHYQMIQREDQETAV

compound: Cc1cc(ccc1-c1ccccc1)C(=O)N1CCCN(CC1)C(=O)CCl [compound 10]; experiment: probe-labelled cysteine peptide fold change vs DMSO (competition) (log2 fold change); higher = less target engagement (more negative = stronger competition); conditions: 10 µM; THP-1; incubation time: 4 h
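Also: competitive profiling in live THP-1 cells: cysteine peptides tagged with an iodoacetamide desthiobiotin (IA-DTB) probe, intensity after compound treatment relative to DMSO-treated cells.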

Point of comparison: “DENND1B_Q6P3S1_52_FCFPFDVER (UniProt Q6P3S1)”, “probe-labelled cysteine peptide fold change” value 0.113. Against it:
- DDX21_Q9NR30_539_TGVCICFYQHK (UniProt Q9NR30) — lower, 0.0095
- DDHD2_O94830_207_GVENISVDIHCGEPLQIDHLVFVVHGIGPACDLR (UniProt O94830) — lower, 0.069
- DDX17_Q92841_584_TTSSANNPNLMYQDECDR (UniProt Q92841) — higher, 0.301
- DDX23_Q9BUQ8_692_MGYNACTLHGGK (UniProt Q9BUQ8) — lower, -0.103
- DDX58_O95786_428_NTDEALDYICK (UniProt O95786) — higher, 0.349
- DDX41_Q9UJV9_427_MVYLLECLQK (UniProt Q9UJV9) — higher, 0.211
- DEF6_Q9H4E7_266_RGIIPLDAHCCVEVLPDRDGK (UniProt Q9H4E7) — higher, 0.179
- DENND4C_Q5VZ89_955_MQTEEVCDASAIVAK (UniProt Q5VZ89) — lower, -0.223
- DGCR8_Q8WYQ5_514_SEVCILHEYMQR (UniProt Q8WYQ5) — lower, -0.0725
- DDX46_Q7L014_646_ASYPCMSLHGGIDQYDR (UniProt Q7L014) — lower, -0.0173
- DEPDC5_O75140_966_ITEGEAHCDIYGDRPR (UniProt O75140) — lower, -0.355
- DDX1_Q92499_406_RLQVIVCSATLHSFDVK (UniProt Q92499) — lower, -0.0399
- DDX41_Q9UJV9_540_ACDESVLMDLK (UniProt Q9UJV9) — lower, -0.00935
- DDX27_Q96GQ7_316+321_QLAQFCNITTCLAVGGLDVK (UniProt Q96GQ7) — higher, 0.131
- DDX59_Q5T1V6_345_QSSVELCGVK (UniProt Q5T1V6) — lower, 0.0664
- DDX18_Q9NVP1_407_ANATVDGLEQGYVVCPSEKR (UniProt Q9NVP1) — lower, -0.283
- DDX20_Q9UHI6_162_MEGLECHVFIGGTPLSQDK (UniProt Q9UHI6) — higher, 0.208
- DDX39A_O00148_197_HFVLDECDK (UniProt O00148) — lower, 0.0709
- DDX31_Q9H8H2_584_GVLLCTDVAAR (UniProt Q9H8H2) — lower, 0.108
- DFFA_O00273_47_ACDILAIDK (UniProt O00273) — higher, 0.148
- DGCR8_Q8WYQ5_352_KHDPPLSSIPCLHYK (UniProt Q8WYQ5) — lower, -0.0269
- DDX41_Q9UJV9_294_CALCIGGMSVK (UniProt Q9UJV9) — lower, 0.0677
- DENND3_A2RUS2_919_LWCALSEGK (UniProt A2RUS2) — higher, 0.202
- DEK_P35659_161_SICEVLDLER (UniProt P35659) — higher, 0.266
- DGKG_P49619_490_VLACGGDGTVGWILDCIDK (UniProt P49619) — lower, 0.00549
- DDB1_Q16531_903_TECNHYNNIMALYLK (UniProt Q16531) — lower, -0.0989
- DDX54_Q8TDD1_365_VSCAHIYSALDPTAR (UniProt Q8TDD1) — higher, 0.176
- DENND4B_O75064_636_LYSQLLHTQMFSQFIEECSFGSAR (UniProt O75064) — higher, 0.158
- DGLUCY_Q7Z3D6-2_165_TTVPCVTHAGFCCPLVVTMRPIPK (UniProt Q7Z3D6) — lower, 0.017
- DECR1_Q16698_86_GMTTLLSSLGAQCVIASR (UniProt Q16698) — higher, 0.251
- DDX39B_Q13838_239_EIRPVCR (UniProt Q13838) — lower, -0.102
- DDX31_Q9H8H2_413_DITVILNAVNAECQK (UniProt Q9H8H2) — lower, 0.0501
- DGKZ_Q13574_265_SGLQHLAPPPPTPGAPCSESER (UniProt Q13574) — lower, -0.0942
- DDX17_Q92841_584_TTSSANNPNLMYQDECDRR (UniProt Q92841) — higher, 0.428

same assay, conditions: 50 µM; THP-1; incubation time: 4 h

Point of comparison: “DDX41_Q9UJV9_540_ACDESVLMDLK (UniProt Q9UJV9)”, “probe-labelled cysteine peptide fold change” value -0.107. Against it:
- DDX21_Q9NR30_539_TGVCICFYQHK (UniProt Q9NR30) — higher, -0.0702
- DDHD2_O94830_207_GVENISVDIHCGEPLQIDHLVFVVHGIGPACDLR (UniProt O94830) — lower, -0.218
- DENND1B_Q6P3S1_52_FCFPFDVER (UniProt Q6P3S1) — higher, 0.0235
- DDX17_Q92841_584_TTSSANNPNLMYQDECDR (UniProt Q92841) — higher, 0.236
- DDX23_Q9BUQ8_692_MGYNACTLHGGK (UniProt Q9BUQ8) — lower, -0.228
- DDX58_O95786_428_NTDEALDYICK (UniProt O95786) — higher, -0.0256
- DDX41_Q9UJV9_427_MVYLLECLQK (UniProt Q9UJV9) — higher, 0.12
- DEF6_Q9H4E7_266_RGIIPLDAHCCVEVLPDRDGK (UniProt Q9H4E7) — lower, -0.143
- DENND4C_Q5VZ89_955_MQTEEVCDASAIVAK (UniProt Q5VZ89) — lower, -0.113
- DGCR8_Q8WYQ5_514_SEVCILHEYMQR (UniProt Q8WYQ5) — lower, -0.257
- DDX46_Q7L014_646_ASYPCMSLHGGIDQYDR (UniProt Q7L014) — higher, 0.231
- DEPDC5_O75140_966_ITEGEAHCDIYGDRPR (UniProt O75140) — higher, 0.108
- DDX1_Q92499_406_RLQVIVCSATLHSFDVK (UniProt Q92499) — higher, 0.166
- DDX27_Q96GQ7_316+321_QLAQFCNITTCLAVGGLDVK (UniProt Q96GQ7) — higher, 0.0433
- DDX59_Q5T1V6_345_QSSVELCGVK (UniProt Q5T1V6) — higher, 9.67e-05
- DDX18_Q9NVP1_407_ANATVDGLEQGYVVCPSEKR (UniProt Q9NVP1) — higher, 0.127
- DDX20_Q9UHI6_162_MEGLECHVFIGGTPLSQDK (UniProt Q9UHI6) — higher, 0.306
- DDX39A_O00148_197_HFVLDECDK (UniProt O00148) — higher, 0.0839
- DDX31_Q9H8H2_584_GVLLCTDVAAR (UniProt Q9H8H2) — higher, -0.0465
- DFFA_O00273_47_ACDILAIDK (UniProt O00273) — lower, -0.197
- DGCR8_Q8WYQ5_352_KHDPPLSSIPCLHYK (UniProt Q8WYQ5) — higher, 0.00272
- DDX41_Q9UJV9_294_CALCIGGMSVK (UniProt Q9UJV9) — lower, -0.281
- DENND3_A2RUS2_919_LWCALSEGK (UniProt A2RUS2) — higher, 0.269
- DEK_P35659_161_SICEVLDLER (UniProt P35659) — higher, 0.317
- DGKG_P49619_490_VLACGGDGTVGWILDCIDK (UniProt P49619) — lower, -0.121
- DDB1_Q16531_903_TECNHYNNIMALYLK (UniProt Q16531) — higher, 0.0912
- DDX54_Q8TDD1_365_VSCAHIYSALDPTAR (UniProt Q8TDD1) — higher, 0.229
- DENND4B_O75064_636_LYSQLLHTQMFSQFIEECSFGSAR (UniProt O75064) — higher, 0.0652
- DGLUCY_Q7Z3D6-2_165_TTVPCVTHAGFCCPLVVTMRPIPK (UniProt Q7Z3D6) — lower, -0.4
- DECR1_Q16698_86_GMTTLLSSLGAQCVIASR (UniProt Q16698) — higher, 0.213
- DDX39B_Q13838_239_EIRPVCR (UniProt Q13838) — higher, 0.105
- DDX31_Q9H8H2_413_DITVILNAVNAECQK (UniProt Q9H8H2) — higher, 0.157
- DGKZ_Q13574_265_SGLQHLAPPPPTPGAPCSESER (UniProt Q13574) — lower, -0.314
- DDX17_Q92841_584_TTSSANNPNLMYQDECDRR (UniProt Q92841) — higher, -0.0273
